Assay results: the supplement of paper PMC12823440, “Inhibitors supercharge kinase turnover through native proteolytic circuits” (Nature, 2025)
Structures can show the parent of a compound that is named as a salt. Some of the results follow. Hit calls seldom repeat between salt and free forms of one compound.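 In K562 cells expressing nanoluciferase-fused kinases, luminescence was recorded at 4 h intervals between 2 and 18 h, normalized as percent of control with DMSO at 100% and a positive control at 0%. A significant (2 sigma) signal drop marks a time point as decreased. The authors' rule for a hit is not shown and takes in more than the number of time points.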

The chains behind the UniProt entries cited, without tags or fusion partners. Where a name states a change or a piece, a line headed by the entry shows the natural chain unless it says otherwise.
UniProt Q9Y463, whole entry, looked up: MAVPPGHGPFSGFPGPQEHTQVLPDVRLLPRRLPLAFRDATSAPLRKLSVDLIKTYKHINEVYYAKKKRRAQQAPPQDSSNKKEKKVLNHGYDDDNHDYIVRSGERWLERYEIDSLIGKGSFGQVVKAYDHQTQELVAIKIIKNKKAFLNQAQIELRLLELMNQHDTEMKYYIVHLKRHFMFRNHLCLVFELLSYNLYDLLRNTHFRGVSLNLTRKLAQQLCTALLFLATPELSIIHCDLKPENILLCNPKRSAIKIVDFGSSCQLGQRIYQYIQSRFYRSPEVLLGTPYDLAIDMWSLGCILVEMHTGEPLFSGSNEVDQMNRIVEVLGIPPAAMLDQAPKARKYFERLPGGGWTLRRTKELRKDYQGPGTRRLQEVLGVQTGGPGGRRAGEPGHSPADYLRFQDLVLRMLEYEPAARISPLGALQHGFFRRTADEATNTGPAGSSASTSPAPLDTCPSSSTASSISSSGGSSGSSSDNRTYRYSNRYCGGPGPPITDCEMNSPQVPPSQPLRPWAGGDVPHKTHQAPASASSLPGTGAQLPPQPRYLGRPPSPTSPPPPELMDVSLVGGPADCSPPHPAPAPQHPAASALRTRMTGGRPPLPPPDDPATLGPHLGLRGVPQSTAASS
UniProt Q92630: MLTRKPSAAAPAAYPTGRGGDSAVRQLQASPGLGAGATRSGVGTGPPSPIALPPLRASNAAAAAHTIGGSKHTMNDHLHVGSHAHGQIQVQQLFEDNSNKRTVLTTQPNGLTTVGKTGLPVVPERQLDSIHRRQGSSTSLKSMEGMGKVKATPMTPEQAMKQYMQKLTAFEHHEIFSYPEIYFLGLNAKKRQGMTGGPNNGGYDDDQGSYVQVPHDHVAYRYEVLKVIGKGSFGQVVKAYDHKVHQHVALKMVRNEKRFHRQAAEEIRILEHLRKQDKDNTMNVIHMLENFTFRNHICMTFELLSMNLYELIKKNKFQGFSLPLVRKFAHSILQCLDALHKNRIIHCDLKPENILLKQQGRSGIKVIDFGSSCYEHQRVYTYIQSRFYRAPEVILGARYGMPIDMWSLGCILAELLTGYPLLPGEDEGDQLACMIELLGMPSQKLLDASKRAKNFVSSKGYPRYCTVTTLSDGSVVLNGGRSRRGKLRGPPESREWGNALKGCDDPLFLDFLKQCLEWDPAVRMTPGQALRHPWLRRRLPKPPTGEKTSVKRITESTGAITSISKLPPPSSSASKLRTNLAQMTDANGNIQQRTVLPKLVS

Target: DYRK1B (UniProt Q9Y463)
Test: kinase-Nluc reporter destabilization hit call (1 = scored as downregulated) (binary); higher = compound decreases kinase abundance
Conditions: K562; 2-18 h

kinase-Nluc reporter destabilization hit call, inactive:
CN(c1ncccc1CNc1nc(Nc2ccc3c(c2)CC(=O)N3)ncc1C(F)(F)F)S(C)(=O)=O (2.5 µM) 0
COc1ccc2c(C(=O)Nc3ccc(NC(=O)c4nn(C5CCN(C(=O)CC(C)(C)C#N)CC5)c5ccc(F)cc45)cc3Cl)cnn2c1 [Src Inhibitor 3] (2.5 µM) 0
Oc1ccc(-c2nc(-c3ccc(F)cc3)c(-c3ccncc3)[nH]2)cc1 (2.5 µM) 0
COc1cc(Nc2ncc3c(n2)-c2ccc(Cl)cc2C(c2c(F)cccc2OC)=NC3)ccc1C(=O)O [Alisertib] (2.5 µM) 0
O=c1c(-c2ccc(O)cc2)coc2cc(O)cc(O)c12 [Genistein] (10 µM) 0
CN1CCN(c2ccc(C(=O)Nc3n[nH]c4ccc(Cc5cc(F)cc(F)c5)cc34)c(NC3CCOCC3)c2)CC1 [Entrectinib] (2.5 µM) 0
CCN1CCN(Cc2ccc(C(=O)Nc3ccc(C)c(Oc4ccc5c(c4)CC(=O)N5)c3)cc2C(F)(F)F)CC1 (2.5 µM) 0

Two entries picked at random from those above, as already listed:
kinase-Nluc reporter destabilization hit call, inactive:
COc1cc(Nc2ncc3c(n2)-c2ccc(Cl)cc2C(c2c(F)cccc2OC)=NC3)ccc1C(=O)O [Alisertib] (2.5 µM) 0
Oc1ccc(-c2nc(-c3ccc(F)cc3)c(-c3ccncc3)[nH]2)cc1 (2.5 µM) 0

Target: DYRK2 (UniProt Q92630)
Test: as above
Conditions: K562; 2-18 h

kinase-Nluc reporter destabilization hit call, inactive:
CC(C)(C)n1nc(Cc2cccc3ccccc23)c2c(N)ncnc21 (10 µM) 0
CC1(C)CC=C(c2nc(C3CC(C)(C)OC(C)(C)C3)ccc2NC(=O)c2nc(C#N)c[nH]2)CC1 [Edicotinib] (2.5 µM) 0
CC(C)CC(=O)Nc1n[nH]c2c1CN(C(=O)C1CCN(C)CC1)C2(C)C (2.5 µM) 0
Nc1ncnc2c1c(-c1ccc(Oc3ccccc3)cc1)cn2C1CCCC1 (2.5 µM) 0
CC(=O)NCC(=O)N1[C@@H]2CC[C@H]1c1ccc(Nc3ncc(C(F)(F)F)c(NC4CCC4)n3)cc12 (2.5 µM) 0
Cc1nc(-c2cnc(NC(C)C)n(C)c2=O)ccc1Oc1ccnc(-c2cnn(C)c2)c1 (2.5 µM) 0
CN(C)C(=O)/C(C#N)=C/c1ccc(-c2nc3cnc4[nH]ccc4c3n2C2CCCCC2)o1 (10 µM) 0
COc1ccc2c(NC(=O)Nc3cccc(C(F)(F)F)n3)ccnc2c1 (10 µM) 0
CNC(=O)c1cccc(-c2ccc3c(N4CCOC[C@@H]4C)nc(N4CCOC[C@@H]4C)nc3n2)c1 [Vistusertib] (2.5 µM) 0
COCCNCCc1cccc(Nc2ncc3c(n2)-c2ccccc2[C@H](c2ccccc2F)C3)c1 [Derazantinib] (2.5 µM) 0
CNC(=O)c1ccccc1Nc1nc(Nc2ccc(N3CCOCC3)cc2OC)ncc1Cl (2.5 µM) 0
Cc1c(C(=O)N2CCOc3ccc(-c4ccc(N)nc4)cc3C2)ccc(S(C)(=O)=O)c1F (10 µM) 0
Cc1ccc(NC(=O)Nc2nnc(Sc3ncnc4cc(OCCCN5CCOCC5)ccc34)s2)cc1 (10 µM) 0
N#CC(=Cc1ccc(O)c(O)c1)C(=O)NCc1ccccc1 (mixture of isomers) (10 µM) 0
COc1ccc(COc2ccc(Cc3cnc(N)nc3N)cc2OC)cc1 (10 µM) 0
CC(=O)N1CCN(c2ccc(OCC3COC(Cn4ccnc4)(c4ccc(Cl)cc4Cl)O3)cc2)CC1 (stereo unspecified) [Ketoconazole] (2.5 µM) 0
Cc1ccc(F)c(NC(=O)Nc2ccc(-c3cccc4[nH]nc(N)c34)cc2)c1 [Linifanib] (2.5 µM) 0
NC(=O)c1ccc2nc(-c3ccc(Oc4ccc(Cl)cc4)cc3)[nH]c2c1 (10 µM) 0
CNc1nc(-c2ccc3c(N)n[nH]c3c2)cc(N2C[C@@H](C(=O)NC3CCCCC3)CC[C@H]2C)n1 (10 µM) 0
Cc1nc(N)sc1-c1ccnc(Nc2ccc(N3CCOCC3)cc2)n1 (10 µM) 0
O=c1oc2ccccc2c(O)c1Cc1c(O)c2ccccc2oc1=O [Dicoumarol] (10 µM) 0
CCc1nc(-c2cccc(C)c2)c(-c2ccnc(NC(=O)c3ccccc3)c2)s1 (10 µM) 0
CC(C)(C)c1cc(NC(=O)Nc2ccc(-c3cn4c(n3)sc3cc(OCCN5CCOCC5)ccc34)cc2)no1 [Quizartinib] (10 µM) 0
O=S(=O)(NCCNC/C=C/c1ccc(Br)cc1)c1cccc2cnccc12 [H-89 (dihydrochloride)] (10 µM) 0
